# Laboratory results published in PubChem BioAssay AID504467 (National Center for Advancing Translational Sciences (NCATS), 2011).
# Out of some 330,000 compounds screened, about 7,700 (2.3%) were called active. Inconclusive means that the source gave no clear call. Such entries were picked first, then a sample of the others. The call rests on the fitted dose curve; in most records, active means well fitted inhibition curve with a large enough effect; inconclusive means small, poorly fitted or top-dose-only effect, or effect the other way; inactive means flat fitted curve, though single readings scatter. Potencies beside an inconclusive call are fits to weak or partial responses and may not hold up.
# Assay: qHTS screen for small molecules that inhibit ELG1-dependent DNA repair in human embryonic kidney (HEK293T) cells expressing luciferase-tagged ELG1; further: nearly all actives have a fitted effect of over 55% in size
# Settings: HEK293T ELG1-luciferase reporter, luminescence, 16 h, DNA damage induced by 5-fluorouridine; activity change, negative = inhibition: at 46.1 µM (top of the series)
# How it was run: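 Step one: seed 2,000 cells per well. Step two: pin-transfer compound or DMSO alongside 5-fluorouridine. Step three: incubate 16 hr, 37 °C, 5% CO2. Step four: add ONE-Glo, wait 30 min, read luminescence.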
# On the % scale 0 is the no-effect control and ±100 the full control effect; potency means the concentration at half of the fitted maximal effect.
Structure (SMILES),Potency,"activity change, negative = inhibition"
c1cncc(Nc2nc(-c3cccs3)cs2)c1,"inconclusive: 2.59 µM [activator, full curve]",
O=C(CCCc1c[nH]c2ccccc12)N1CCCCCC1,"inconclusive: 18.4 µM [activator, partial curve]",
Cc1cc(N2CCN(C)CC2)nc2ccc(NC(=S)N3CCN(c4ccc(F)cc4)CC3)cc12,,inactive: -14.2%
COC(=O)/C=C1\C(=O)N(c2nc3ccccc3s2)C(=S)N1c1ccc(F)cc1,"inconclusive: 25.9 µM [activator, single point]",
COC(=O)c1c(NC(=O)CCc2ccc(C)o2)sc(C)c1C,,inactive: 5.49%
CS/C(N)=N/S(=O)(=O)c1ccc(NC(C)=O)cc1,,inactive: 7.83%
Cn1c(N)c(S(=O)(=O)N2CCN(c3ccccc3Cl)CC2)c(=O)n(C)c1=O,,inactive: -6.94%
CC(C)N(Cc1ccccc1)C(=O)CCc1ccccc1,"inconclusive: 4.11 µM [inhibitor, partial curve, poor fit]",
N/C(=N\OC(=O)/C=C/c1ccccc1Cl)c1ccncc1,"inconclusive: 2.59 µM [activator, partial curve]",
CC1CCCN(C(=O)CCc2ccccc2)C1 (stereo unspecified),"inconclusive: 25.9 µM [activator, single point]",
O=C(O)C1CC=CCC1C(=O)Nc1ccccc1 (stereo unspecified),"inconclusive: 20.6 µM [activator, single point]",
O=C(N/N=C\c1ccc([N+](=O)[O-])o1)c1cncc(Br)c1,active: 16.4 µM,
O=C(O)CSc1nnc(NC(=O)c2ccc3c(c2)OCO3)s1,,inactive: -9.56%
Cc1nc2c(c(=O)n1CCC(C)C)c1nc3ccccc3nc1n2CC1CCCO1 (stereo unspecified),"inconclusive: 32.6 µM [inhibitor, single point]",
COC(=O)c1nn(-c2ccc(Oc3ccccc3)cc2)c(=O)cc1O,,inactive: -4.57%
CCCCCCS(=O)Cc1ccccc1 (stereo unspecified),"inconclusive: 16.4 µM [activator, partial curve, poor fit]",
c1ccc(C2=Nn3c(nnc3-c3n[nH]c4c3CCC4)SC2)cc1,"inconclusive: 13 µM [activator, partial curve]",
O=C(NCCCn1ccnc1)c1ccccc1NS(=O)(=O)c1ccc(F)c(F)c1,,inactive: 3.42%
Cc1c(C(=O)N/N=C/c2cccnc2)sc(N)c1C#N,"inconclusive: 18.3 µM [activator, partial curve]",
CCOC(=O)C1=NN(C(=O)c2ccc(OC)cc2)C(O)(c2ccc(Cl)cc2)C1 (stereo unspecified),,inactive: -2.51%
C=CCN=C1N[C@@H](c2ccccc2)C(C(=O)OC)=C(C)N1CCOC,,inactive: -20.7%
CCCC(=O)Nc1nnc(CC(=O)N2CCCC2)s1,"inconclusive: 1.16 µM [activator, single point]",
CCOC(=O)C1CCCN(C(=O)c2sc3nc(-c4ccc(F)cc4)cn3c2C)C1 (stereo unspecified),"inconclusive: 29.1 µM [inhibitor, single point]",
O=C(N/N=C/c1ccc(-c2ccc([N+](=O)[O-])cc2)o1)c1cccnc1,,inactive: 8.37%

Structure (SMILES),Potency,"activity change, negative = inhibition"
CCN1/C(=C\C(=S)Nc2ccccc2)Sc2ccccc21,"inconclusive: 20.6 µM [activator, partial curve]",
C=CCN(C(=O)C1CC(=O)N(C2CCCC2)C1)c1nc(-c2ccc(S(C)(=O)=O)cc2)cs1 (stereo unspecified),"inconclusive: 25.9 µM [inhibitor, single point]",
CCOC(=O)N1CCC(NC(=O)c2cccn3c(=O)c4cc(Br)ccc4nc23)CC1,"inconclusive: 6.51 µM [inhibitor, single point]",
CN(c1ccc(OCC(=O)OCC(=O)Nc2ccccc2)cc1)S(=O)(=O)c1cccs1,"inconclusive: 11.6 µM [activator, partial curve]",
CCC(Sc1nc2cc(OC)c(OC)cc2c(=O)n1CCc1ccc(S(N)(=O)=O)cc1)C(=O)NCCOC (stereo unspecified),"inconclusive: 18.3 µM [inhibitor, single point]",
CCn1cc(C(=O)NCCc2ccc(OC)c(OC)c2)c(=O)c2cc(S(=O)(=O)N3CCOCC3)ccc21,,inactive: 10.8%
CC(C)CCCCCCNC(=S)Nc1ccc(S(=O)(=O)N2CCOCC2)cc1,"inconclusive: 10.3 µM [inhibitor, partial curve, poor fit]",
Cc1cc(=O)n2nc(N3CCC(C(=O)NCc4cccnc4)CC3)sc2n1,,inactive: 18.5%
Cc1ccc(CNC(=S)Nc2ccc(NS(=O)(=O)c3ccc(C)cc3)cc2)cc1,"inconclusive: 23.1 µM [inhibitor, single point]",
N#C/C(=C\C=C\c1ccccc1)C(=O)N1CCCC1,"inconclusive: 29.1 µM [activator, single point]",
C=CCN(C(=O)c1oc2c(Cl)cc(C)cc2c1C)C1CCS(=O)(=O)C1 (stereo unspecified),"inconclusive: 10.3 µM [activator, partial curve]",
CCOc1cc(NC(=O)c2ccccc2C(=O)O)c(OCC)cc1NC(=O)c1ccccc1F,"inconclusive: 4.11 µM [inhibitor, partial curve, poor fit]",
CCOc1ccc(NS(=O)(=O)c2ccc(Cl)c(C(=O)N(C)Cc3cccnc3)c2)cc1,,inactive: -12.3%
CC(C(=O)Nc1ccccc1Br)N1c2cccc3cccc(c23)S1(=O)=O (stereo unspecified),"inconclusive: 20.6 µM [inhibitor, single point]",
Cc1ccc(-c2cn3cc(C)ccc3n2)cc1,"inconclusive: 0.092 µM [activator, full curve]",
COC(=O)c1[nH]c2cc(C)ccc2c1NC(=O)CN1CCN(c2ccccc2OC)CC1,active: 20.6 µM,
CCc1cccc(CC)c1N(COC)C(=O)Cn1cnc2ccccc21,,inactive: 12%
N#Cc1ccccc1OCCCN1CCC(Cc2ccccc2)CC1,,inactive: -16.3%
COC(=O)Cc1csc(N)n1,"inconclusive: 23.1 µM [activator, single point]",
COC(=O)C1=C(CN2CCCc3ccccc32)NC(=O)NC1c1ccc(F)cc1 (stereo unspecified),"inconclusive: 0.92 µM [activator, full curve]",
CN(C)c1ccc(/C=C/c2ccncc2)cc1,"inconclusive: 11.2 µM [activator, partial curve, poor fit]",
CCn1cc(C(=O)N2CCc3ccccc32)c(=O)c2cc(S(=O)(=O)N3CCCCCC3)ccc21,"inconclusive: 14.6 µM [inhibitor, partial curve]",
O=C(Nc1ccc(Cl)cc1)N1CCC(CO)(Cc2ccccc2)CC1,"inconclusive: 23.1 µM [inhibitor, partial curve, poor fit]",
CCOc1cc(C(=S)N2CCCC2)ccc1OCC(=O)Nc1c(C)cc(C)cc1C,active: 20.6 µM,

# Exported with tabs: entries from further up.
Structure (SMILES)	Potency	activity change, negative = inhibition
CCN1/C(=C\C(=S)Nc2ccccc2)Sc2ccccc21	inconclusive: 20.6 µM [activator, partial curve]	
C=CCN(C(=O)C1CC(=O)N(C2CCCC2)C1)c1nc(-c2ccc(S(C)(=O)=O)cc2)cs1 (stereo unspecified)	inconclusive: 25.9 µM [inhibitor, single point]	
CCOc1cc(NC(=O)c2ccccc2C(=O)O)c(OCC)cc1NC(=O)c1ccccc1F	inconclusive: 4.11 µM [inhibitor, partial curve, poor fit]	
Cc1ccc(-c2cn3cc(C)ccc3n2)cc1	inconclusive: 0.092 µM [activator, full curve]	
CCn1cc(C(=O)N2CCc3ccccc32)c(=O)c2cc(S(=O)(=O)N3CCCCCC3)ccc21	inconclusive: 14.6 µM [inhibitor, partial curve]	

# Next part

Structure (SMILES),Potency,"activity change, negative = inhibition"
O=C(NCC(c1cccs1)N1CCOCC1)c1cnc(Cl)c(Cl)c1 (stereo unspecified),,inactive: 0.0354%
COc1ccc(C(=O)N2CCCN(C)CC2)cc1S(=O)(=O)N1CCCc2ccccc21,"inconclusive: 11.2 µM [activator, partial curve, poor fit]",
COc1cccc(/C=C/C(=O)c2ccc3c(c2)OCO3)c1OC,"inconclusive: 35.5 µM [activator, single point]",
O=C(CSc1nnc2ccccn12)Nc1ncc(Cl)cc1Cl,"inconclusive: 16.4 µM [activator, partial curve]",
COc1cc(/C=C/c2nc3ccccc3s2)cc(OC)c1O,"inconclusive: 18.3 µM [activator, partial curve]",
CCC(C)(C)C1CCC(=NNc2nc3ccccc3[nH]2)CC1 (stereo unspecified),,inactive: 10.3%
COc1ccc(C(=O)NC23CC4CC(CC(C4)C2)C3)cc1,"inconclusive: 16.4 µM [activator, partial curve, poor fit]",
O=C(COC(=O)c1cccs1)Nc1cccc(S(=O)(=O)N2CCCCC2)c1,,inactive: 2.48%
CCCN(CC(=O)Nc1ccccc1C)C(=O)CC(NC(=O)c1ccccc1)c1ccccc1 (stereo unspecified),"inconclusive: 2.91 µM [inhibitor, single point]",
CCOC(=O)CC1COCCN1Cc1cn[nH]c1-c1cc(OC)c(OC)c(OC)c1 (stereo unspecified),"inconclusive: 29.1 µM [activator, single point]",
CCCS(=O)(=O)N1CCCC(C(=O)N2CCN(c3ccccn3)CC2)C1 (stereo unspecified),"inconclusive: 0.517 µM [activator, partial curve, poor fit]",
O=C(NC(=S)NCCc1ccccc1)c1ccccc1,"inconclusive: 18.4 µM [activator, single point]",
COc1ccc(Cn2c(-c3ccc(Br)cc3)c[n+]3ccccc23)cc1,"inconclusive: 16.4 µM [activator, partial curve]",
N#Cc1ccsc1NC(=O)COC(=O)C1=NNC(=O)CC1,"inconclusive: 23.1 µM [activator, partial curve]",
O=C1OCC(c2ccc(Cl)s2)=C1c1ccccc1[N+](=O)[O-],"inconclusive: 0.517 µM [inhibitor, single point]",
O=C(Cc1cccs1)N/N=C/C=C/c1ccccc1,"inconclusive: 6.51 µM [activator, partial curve]",
CCCn1nnc(NC(=O)COc2ccccc2Cl)n1,"inconclusive: 29.1 µM [activator, single point]",
CCOc1ccc(NS(=O)(=O)c2ccc(-c3coc(C)n3)cc2)cc1,,inactive: -2.47%
COC(=O)C1=C(C)N(CCc2ccc(OC)cc2)C(=O)C1,"inconclusive: 29.1 µM [inhibitor, single point]",
O=C(N/N=C/c1ccc(OC2CSC2)cc1)c1ccc(CN2CCOCC2)cc1,"inconclusive: 3.66 µM [inhibitor, full curve]",
O=C(CCc1ccccc1)NNC(=S)NCc1ccc(Cl)cc1,,inactive: -0.24%
CCC(=O)Nc1ccc(S(=O)(=O)Nc2cccc(C)c2)cc1OC,,inactive: -0.303%
COc1ccc(Nc2nc(-c3cccc(OC)c3O)nc3ccccc23)cc1,"inconclusive: 29.1 µM [inhibitor, single point]",
